Laboratory results: publication PMC12824147

The chains behind the UniProt entries cited, without tags or fusion partners.
UniProt P35222: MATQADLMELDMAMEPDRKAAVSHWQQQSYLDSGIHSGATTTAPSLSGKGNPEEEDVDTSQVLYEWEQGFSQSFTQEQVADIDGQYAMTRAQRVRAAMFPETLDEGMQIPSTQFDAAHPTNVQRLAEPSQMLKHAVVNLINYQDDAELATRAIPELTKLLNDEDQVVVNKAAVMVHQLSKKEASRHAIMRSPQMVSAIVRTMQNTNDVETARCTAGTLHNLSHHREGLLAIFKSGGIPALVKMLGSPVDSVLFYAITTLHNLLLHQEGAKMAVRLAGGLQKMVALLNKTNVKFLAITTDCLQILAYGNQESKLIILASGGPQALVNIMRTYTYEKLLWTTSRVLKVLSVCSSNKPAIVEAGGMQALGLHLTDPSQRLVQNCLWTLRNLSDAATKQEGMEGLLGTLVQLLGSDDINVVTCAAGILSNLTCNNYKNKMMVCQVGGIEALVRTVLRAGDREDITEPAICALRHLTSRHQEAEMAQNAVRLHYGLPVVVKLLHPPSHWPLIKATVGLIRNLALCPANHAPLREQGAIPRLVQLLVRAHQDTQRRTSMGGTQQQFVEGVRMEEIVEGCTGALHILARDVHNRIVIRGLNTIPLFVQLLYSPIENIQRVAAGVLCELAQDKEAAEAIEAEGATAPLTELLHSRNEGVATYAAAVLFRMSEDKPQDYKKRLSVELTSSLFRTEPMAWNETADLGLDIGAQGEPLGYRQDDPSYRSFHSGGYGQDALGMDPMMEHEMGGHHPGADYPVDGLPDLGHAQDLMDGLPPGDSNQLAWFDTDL

Target: T1, FLAG-tagged FAM84A (human) (UniProt Q96KN4)
T1 sequence: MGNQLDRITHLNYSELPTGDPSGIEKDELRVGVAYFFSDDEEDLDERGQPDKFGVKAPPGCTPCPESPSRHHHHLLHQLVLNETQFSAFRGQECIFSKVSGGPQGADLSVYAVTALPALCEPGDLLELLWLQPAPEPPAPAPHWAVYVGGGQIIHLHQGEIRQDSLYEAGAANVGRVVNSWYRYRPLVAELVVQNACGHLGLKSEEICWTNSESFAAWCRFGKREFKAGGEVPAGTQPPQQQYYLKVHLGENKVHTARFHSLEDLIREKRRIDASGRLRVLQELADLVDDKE
Experiment: affinity purification with mass spectrometry; anti-FLAG antibody (IgG as control) on lysate of FAM84A^FLAG-overexpressing CSC spheres, protein A/G magnetic beads, 5 washes with lysis buffer, SDS-PAGE, silver-stained bands cut out for mass spectrometry

Q: β-catenin (from UniProt P35222 1-781) was tested. Which binding did it give?
A: The binding was “binds”.

Results are given in words; binding and its absence hold for the method and conditions named. In cells and extracts the contact can be indirect. These calls come from enrichment with a bait or labelling near it, and not all partners need be listed. Sequences can lack the tags named with a protein.
